Experimental data as given in PubChem BioAssay AID493014 (National Center for Advancing Translational Sciences (NCATS), 2011).
The other results are listed elsewhere or left out. The main result of the screen is listed elsewhere. These columns were measured beside it and carry no call. The list favours compounds with an active or inconclusive main result. Words in brackets tell the shape of the fitted curve; partial curves, single points and poor fits give uncertain potencies.

Assay: qHTS Assay to Find Inhibitors of Chronic Active B-Cell Receptor Signaling
Settings: ABC-DLBCL IkBa-CBG/CBR reporter, luminescence ratio (green luciferase fused to IkBa over red control in TMD8 lymphoma cells), 4 h
Outline: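 TMD8 ABC-DLBCL cells carrying doxycycline-inducible green luciferase fused to IkappaBalpha plus unfused red luciferase were exposed to compounds (up to 46 uM) for 4 hrs at 37C. Activity came from the overlap-corrected green/red luminescence ratio.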

[1] = measured here: CBR red luminescence, cell number
[2] = measured here: IkBa-CBG green luminescence

## CC(C)(C)C(=O)OCCNc1nc(-c2ccccc2)nc2ccccc12
[1]
  AC50: 29.1 µM [falling, single point]

## CCC(C)[C@H](NC(=O)N1CCn2c1nc1ccccc12)C(=O)NCC1CCCO1 (stereo not given in full)
[1]
  AC50: 35.5 µM [falling, partial curve, poor fit]

## Cc1oncc1C(=O)Nc1ccc(C(F)(F)F)cc1
[1]
  AC50: 8.91 µM [falling, partial curve]

## COc1ccc(NC(=O)c2ccc(NC(=O)c3cccs3)cc2)cc1
[1]
  AC50: 3.16 µM [rising, full curve, poor fit]

## Cc1cccc2cc(CN(CCN(C)C)C(=S)NCc3ccco3)c(=O)[nH]c12
[1]
  AC50: 29.1 µM [falling, single point]

## C/C=C\C=C/C(=O)Nc1cccc(C2=NOC3(C2)C[C@@H](C(N)=O)N(C(=O)c2ccccc2)C3)c1 (stereo not given in full)
[1]
  AC50: 4.47 µM [falling, partial curve, poor fit]

## Cc1nn(Cc2ccc(Cl)cc2Cl)c(Cl)c1/C=N/NC(=O)CNc1cccc(C(F)(F)F)c1
[1]
  AC50: 4.61 µM [rising, partial curve, poor fit]

## COc1ccccc1NC(=S)NNC(=O)c1nn(C)c(C)c1Cl
[1]
  AC50: 20.6 µM [falling, partial curve]

## Cc1ccc(-c2n[nH]c(=S)n2/N=C/c2c(C)nn(-c3ccccc3)c2C)cc1
[1]
  AC50: 2.59 µM [rising, partial curve, poor fit]

## N#Cc1nc(Cc2ccccc2)oc1NCCc1ccccc1
[1]
  AC50: 3.98 µM [rising, single point]

## C#CCOc1ccc(/C=C2/C(=O)NN(c3ccc(F)cc3)C2=O)cc1OC
[1]
  AC50: 0.316 µM [rising, single point]

## Cc1ccc(-c2nn(-c3ccccc3)cc2/C=N/n2c(-c3cccs3)n[nH]c2=S)cc1
[1]
  AC50: 35.5 µM [rising, single point]

## Cc1cc(N2CCOCC2)c2c(N)cc(C)c(C)c2n1
[1]
  AC50: 29.1 µM [rising, single point]

## Cc1ccccc1C(=O)Nc1ccc(C(=O)N/N=C/c2ccc(O)c(Br)c2)cc1
[1]
  AC50: 10 µM [falling, partial curve, poor fit]

## NS(=O)(=O)c1ccc(NC(=O)Nc2cccc3ccccc23)cc1
[1]
  AC50: 3.98 µM [falling, full curve]

## COc1ccc2[nH]c3c(c2c1)CCN1C(=O)C(CC(=O)NC(C)(C)C)C[C@H](C(=O)N2CCCCC2)[C@@]31C (stereo not given in full)
[1]
  AC50: 0.164 µM [rising, full curve, poor fit]

## CNc1ccc(OC(F)F)cc1C(=O)c1ccccc1
[1]
  AC50: 35.5 µM [rising, single point]

## Cc1cccc2sc(NC(=O)CCNC(=O)c3ccco3)nc12
[1]
  AC50: 7.31 µM [falling, partial curve]

## Cc1cc(C(=O)CSc2nnc(-c3cccc(F)c3)n2N)c(C)n1Cc1ccc2c(c1)OCO2
[1]
  AC50: 29.1 µM [falling, partial curve, poor fit]

## CCOC(=O)N1C2=NC(C(=O)OC)=C(C(=O)OC)[C@@H]3N(C)c4ccccc4[C@]23C[C@H]1C(=O)OC
[1]
  AC50: 3.98 µM [rising, partial curve, poor fit]

## COC(=O)c1cn(CCOc2ccccc2F)c2ccccc12
[1]
  AC50: 1.64 µM [rising, partial curve, poor fit]

## CCn1cc(C(=O)NCCN(C)C)c(=O)c2cc(F)c(N3CCN(C)CC3)cc21
[1]
  AC50: 0.447 µM [falling, full curve, poor fit]

## Cc1cc(O)ccc1Nc1nc(-c2cccs2)cs1
[1]
  AC50: 3.55 µM [rising, single point]

## CCn1c(SCC(=O)N2CCOCC2)nc2oc3c(Cl)cc(Cl)cc3c(=O)c2c1=O
[1]
  AC50: 2.82 µM [rising, full curve, poor fit]

## O=C(C[C@@H]1C/C=C\CC[C@H](Cc2ccc(F)cc2)C(=O)OC[C@@H]2CCCN2C1=O)N[C@H](CO)Cc1ccccc1
[1]
  AC50: 29.1 µM [falling, single point]

## Cc1nc2ccc(NC(=O)c3ccc(Br)o3)cc2s1
[1]
  AC50: 25.1 µM [falling, single point]

## Oc1cccc(NC(=S)N=Nc2c(O)[nH]c3ccccc23)c1
[1]
  AC50: 12.6 µM [falling, partial curve, poor fit]

## O=C(c1c[nH]c2ccccc12)N1CCN(Cc2ccccc2)CC1
[1]
  AC50: 7.08 µM [falling, full curve]

## O=C(CSc1nnc(-c2ccccn2)o1)Nc1ccccc1Cl
[1]
  AC50: 8.91 µM [falling, partial curve, poor fit]

## C=CCNC(=O)c1cc(-c2ccccc2O)on1
[1]
  AC50: 2.06 µM [falling, full curve]

## Cc1ccc2nc(SCC(=O)Nc3oc(C)c4c(C)n[nH]c(=O)c34)[nH]c2c1
[1]
  AC50: 29.1 µM [falling, single point]

## CCc1[nH]nc2c1C(C1C=CCCC1)C(C#N)=C(N)O2 (stereo not given)
[1]
  AC50: 11.2 µM [falling, partial curve]

## CN(C(=O)CCCN1C(=O)c2cccc3cccc(c23)C1=O)c1ccccc1
[1]
  AC50: 20.6 µM [rising, single point]
[2]
  AC50: 6.51 µM [rising, partial curve, poor fit]

## Cc1cccc(NC(=O)CCSc2ccccc2)c1C
[1]
  AC50: 35.5 µM [falling, single point]

## CCOC1(OCC)C(c2ccc(Cl)cc2)C(C#N)(C#N)C1(OCC)OCC (stereo not given)
[1]
  AC50: 1.41 µM [falling, full curve]

## COc1ccc(S(=O)(=O)N2c3cc(C)ccc3OCC2C(C)(C)C)cc1 (stereo not given)
[1]
  AC50: 3.98 µM [rising, single point]

## Cc1cccc(N(C(=O)c2nsc(Cl)c2Cl)C(C(=O)NC2CCCC2)c2ccc(O)cc2)c1 (stereo not given)
[1]
  AC50: 23.1 µM [falling, single point]

## COc1cccc(NC(=O)Nc2nc(SC)ns2)c1
[1]
  AC50: 3.98 µM [falling, partial curve]

## CCc1nnc(NC(=O)c2ccc(S(=O)(=O)N(CCOC)CCOC)cc2)s1
[1]
  AC50: 6.51 µM [falling, single point]
[2]
  AC50: 6.51 µM [rising, partial curve, poor fit]

## O=C(CC1(O)C(=O)Nc2cc(Cl)cc(Cl)c21)c1ccncc1 (stereo not given)
[1]
  AC50: 10.3 µM [falling, partial curve, poor fit]

## Cc1cc(C)n(-c2nc3ccccc3c(=O)n2OCC(=O)OCc2ccccc2)n1
[2]
  AC50: 15.8 µM [falling, single point]

## COc1ccc(C(=O)NC(C)(C)C)cc1S(=O)(=O)N1CCCC1
[1]
  AC50: 2.06 µM [falling, single point]

## Cc1ccc(N=C2NC(=O)S/C2=C\c2ccco2)cc1
[1]
  AC50: 14.6 µM [falling, partial curve]

## COc1ccccc1C(CNC(=O)CSc1ccc2ccccc2c1)N(C)C (stereo not given)
[1]
  AC50: 11.2 µM [falling, single point]

## COc1ccc(NS(=O)(=O)c2ccc(C)c(NC(=O)CNC(=O)c3ccco3)c2)cc1
[1]
  AC50: 2.31 µM [rising, full curve, poor fit]

## O=C(NCc1ccco1)c1cc(-c2ccc(F)cc2)on1
[1]
  AC50: 3.55 µM [falling, full curve]

## CCCC(=O)Nc1ccc(OCC(=O)OC)cc1
[1]
  AC50: 32.6 µM [rising, partial curve, poor fit]

## O=[N+]([O-])c1ccc(C[n+]2cccc3ccc4cccnc4c32)cc1
[1]
  AC50: 14.1 µM [falling, partial curve, poor fit]

## COc1cccc(COCCN2CCN(S(=O)(=O)c3ccc(C)cc3)CCC2=O)c1
[1]
  AC50: 25.9 µM [rising, partial curve, poor fit]

## Cc1ccc2[nH]c(C(F)(F)F)cc(=O)c2c1
[1]
  AC50: 8.91 µM [falling, partial curve, poor fit]

## N#CCC(=O)Nc1ccc(C(=O)Nc2cccnc2)cc1
[1]
  AC50: 12.6 µM [falling, single point]

## CCCCOc1ccccc1NC(=O)Cn1c(-c2nonc2N)nc2ccccc21
[1]
  AC50: 8.2 µM [rising, partial curve]
[2]
  AC50: 6.51 µM [falling, partial curve]

## O=C(NCC1CCCCC1)C1(CC2CC(c3ccc(Cl)cc3)=NO2)CCNCC1 (stereo not given)
[1]
  AC50: 17.8 µM [falling, single point]

## CCCCOc1ccc(-c2ncc([N+](=O)[O-])cn2)cc1
[1]
  AC50: 28.2 µM [rising, single point]

## O=C(CCCc1ccccc1)c1ccccc1
[1]
  AC50: 0.501 µM [rising, full curve, poor fit]

## O=C(NCc1cccc(Cl)c1)NCc1cccc(Cl)c1
[1]
  AC50: 16.4 µM [rising, partial curve, poor fit]

## CCC(C)(C)c1ccc(OCCCC[n+]2cccc(C)c2C)c(C(C)(C)CC)c1
[1]
  AC50: 35.5 µM [falling, single point]

## CC(=O)NC/C(C)=N\Nc1ccc([N+](=O)[O-])cc1
[1]
  AC50: 7.94 µM [rising, partial curve, poor fit]

## CCOC(=O)NCc1ccc2[nH]c(C)cc2c1
[1]
  AC50: 3.98 µM [rising, full curve, poor fit]

## C=CCOc1cccc(C(=O)N2CCCC(CNS(=O)(=O)c3cccs3)C2)c1 (stereo not given)
[1]
  AC50: 14.1 µM [rising, partial curve]

## Cc1ccc(C(=O)Nc2nc(-c3ccccc3)c(-c3ccccc3)o2)cc1
[1]
  AC50: 11.6 µM [falling, partial curve, poor fit]

## COc1ccc(C[C@H]2CN3C(=NC[C@H]3Cc3ccccc3)N2CCNC(=O)c2ccc(C)c(Br)c2)cc1
[1]
  AC50: 20 µM [falling, single point]
